From patent US20250388673A1
Numbering of substitutions follows the chain as printed. No constants are given. Whether binding was seen depends on the method and setting. Binding can be weak; no strength is given.

B1: HFB6-4hz21-hG1 (antibody, human IgG1, V domains shown)
VH: EVQLVESGGGLVQPGRSLRLSCTTSGFNIKDTYIHWFRQAPGKGLEWVGRNDPANGNTKYTASFKGRATISADGSKSIAYLQMNSLKTEDTAVYYCASYEGYYERFGYWGQGTLVTVSS
VL: DIVMTQSPDSLAVSLGERATINCKSSQSLLDRDGKTYLNWLQQKPGQSPKRLIYLVSKLDSGVPDRFSGSGSGTDFTLTISSLQAEDLAVYYCWQDTHFPYTFGQGTKLEIK
B2: HFB6-5hz20-hG1 (antibody, human IgG1, V domains shown)
VH: QVQLVQSGAEVKKPGASVKVSCKASGVNIKDTYMYWVRQAPGQGLEWIGRIDPANGYTRYAQKFQGRATITADTSTSTVYMELSSLRSEDTAVYYCAVYDGYYESFDVWGQGTLVTVSS
VL: B1 VL with R32S, L83V, D96G, H98L, Y101R
B3: HFB6-5hz21-hG1 (antibody, human IgG1, V domains shown)
VH: EVQLVESGGGLVQPGRSLRLSCTASGVNIKDTYMYWVRQAPGKGLEWVGRIDPANGYTRYTASFKGRATISADGSKSIAYLQMNSLKTEDTAVYYCAVYDGYYESFDVWGQGTLVTVSS
VL: B1 VL with R32S, L83V, D96G, H98L, Y101R
B4: HFB6-4hz22-hG1 (antibody, human IgG1, V domains shown)
VH: EVQLVESGGGLVQPGGSLKLSCATSGFNIKDTYIHWVRQASGKGLEWIGRNDPANGNTKYAASFKGRATISADDSKNTAYLQLNSLKTEDTAVYYCASYEGYYERFGYWGQGTLVTVSS
VL: B1 VL
B5: HFB6-5hz22-hG1 (antibody, human IgG1, V domains shown)
VH: B3 VH with R16G, R19K, T23A, P41S, V48I, T61A, G74D, S77N, I78T, M83L
VL: B1 VL with R32S, L83V, D96G, H98L, Y101R
B6: HFB6-5hz24-hG1 (antibody, human IgG1, V domains shown)
VH: EVQLVQSGAEVKKPGESLKISCKGSGVNIKDTYMYWVRQMPGKGLEWIGRIDPANGYTRYSPSFQGQVTISADKSISTAYLQLSSLKASDTAMYYCAVYDGYYESFDVWGQGTLVTVSS
VL: B1 VL with R32S, L83V, D96G, H98L, Y101R
B7: HFB6-5hz23-hG1 (antibody, human IgG1, V domains shown)
VH: QVQLQESGPGLVKPSGTLSLTCAASGVNIKDTYMYWVRQPPGKGLEWIGRIDPANGYTRYNPSFKSRATISADKSKNQASLKLSSVTAADTAVYYCAVYDGYYESFDVWGQGTLVTVSS
VL: B1 VL with R32S, L83V, D96G, H98L, Y101R
B8: HFB6-4hz24-hG1 (antibody, human IgG1, V domains shown)
VH: EVQLVQSGAEVKKPGESLKISCKTSGFNIKDTYIHWVRQMPGKGLEWIGRNDPANGNTKYSPSFQGQVTISADKSISTAYLQLSSLKASDTAMYYCASYEGYYERFGYWGQGTLVTVSS
VL: B1 VL
B9: HFB6-4hz23-hG1 (antibody, human IgG1, V domains shown)
VH: QVQLQESGPGLVKPSGTLSLTCAVSGFNIKDTYIHWVRQPPGKGLEWIGRNDPANGNTKYNPSFKSRATISADKSKNQASLKLSSVTAADTAVYYCASYEGYYERFGYWGQGTLVTVSS
VL: B1 VL
B10: HFB6-5hz19-hG1 (antibody, human IgG1, V domains shown)
VH: B2 VH with A16S, T58A, T74E, V79A
VL: B1 VL with R32S, L83V, D96G, H98L, Y101R
B11: HFB6-5hz1-hG1 (antibody, human IgG1, V domains shown)
VH: B2 VH with A16S, T58A, T74E, V79A
VL: DIQMTQSPSSLSASVGDRVTITCRSSQSLLDSDGKSYLNWLQQKPGKAPKRLIYLVSKLDSGVPSRFSGSGSGTDFTLTISSLQPEDFATYYCWQGTLFPRTFGQGTKLEIK
B12: HFB6-5hz3-hG1 (antibody, human IgG1, V domains shown)
VH: B3 VH
VL: B11 VL
B13: HFB6-5hz4-hG1 (antibody, human IgG1, V domains shown)
VH: B3 VH with R16G, R19K, T23A, P41S, V48I, T61A, G74D, S77N, I78T, M83L
VL: B11 VL
B14: HFB6-5hz5-hG1 (antibody, human IgG1, V domains shown)
VH: B7 VH
VL: B11 VL
B15: HFB6-5hz2-hG1 (antibody, human IgG1, V domains shown)
VH: B2 VH
VL: B11 VL
B16: HFB6-4hz1-hG1 (antibody, V domains shown)
VH: QVQLVQSGAEVKKPGSSVKVSCKTSGFNIKDTYIHWVRQAPGQGLEWIGRNDPANGNTKYAQKFQGRATITADESTSTAYMELSSLRSEDTAVYYCASYEGYYERFGYWGQGTLVTVSS
VL: B11 VL with S32R, G96D, L98H, R101Y
B17: HFB6-5hz7-hG1 (antibody, human IgG1, V domains shown)
VH: B2 VH with A16S, T58A, T74E, V79A
VL: DVVMTQSPLSLPVTLGQPASISCRSSQSLLDSDGKTYLNWLQQRPGQSPRRLIYLVSKRDSGVPDRFSGSGSGTDFTLKISRVEAEDLGVYYCWQGTLFPRTFGQGTKLEIK
B18: HFB6-5hz13-hG1 (antibody, human IgG1, V domains shown)
VH: B2 VH with A16S, T58A, T74E, V79A
VL: EIVLTQSPGTLSVSPGERATISCRSSQSLLDSDGKTYLNWLQQKPGQAPRRLIYLVSKRDTGVPDRFSGSGSGTDFTLTISRVEPEDFAVYYCWQGTLFPRTFGQGTKLEIK
B19: HFB6-5hz6-hG1 (antibody, human IgG1, V domains shown)
VH: B6 VH
VL: B11 VL
B20: HFB6-5hz14-hG1 (antibody, human IgG1, V domains shown)
VH: B2 VH
VL: B18 VL
B21: HFB6-5hz8-hG1 (antibody, human IgG1, V domains shown)
VH: B2 VH
VL: B17 VL
B22: HFB6-5hz9-hG1 (antibody, human IgG1, V domains shown)
VH: B3 VH
VL: B17 VL
B23: HFB6-5hz16-hG1 (antibody, human IgG1, V domains shown)
VH: B3 VH with R16G, R19K, T23A, P41S, V48I, T61A, G74D, S77N, I78T, M83L
VL: B18 VL
B24: HFB6-5hz15-hG1 (antibody, human IgG1, V domains shown)
VH: B3 VH
VL: B18 VL
B25: HFB6-5hz10-hG1 (antibody, human IgG1, V domains shown)
VH: B3 VH with R16G, R19K, T23A, P41S, V48I, T61A, G74D, S77N, I78T, M83L
VL: B17 VL
B26: HFB6-5hz11-hG1 (antibody, human IgG1, V domains shown)
VH: B7 VH
VL: B17 VL
B27: HFB6-5hz12-hG1 (antibody, human IgG1, V domains shown)
VH: B6 VH
VL: B17 VL
B28: HFB6-5hz17-hG1 (antibody, human IgG1, V domains shown)
VH: B7 VH
VL: B18 VL
B29: HFB6-5hz18-hG1 (antibody, human IgG1, V domains shown)
VH: B6 VH
VL: B18 VL

Molecular target: cynomolgus BTLA (cynomolgus monkey)
Test: flow cytometry, Expi293 cells overexpressing cynomolgus BTLA

binding, binds:
B1
B2
B3
B4
B5
B6
B7
B8
B9
B10
B11
B12
B13
B14
B15
B16
B17
B18
B19
B20
B21
B22
B23
B24
B25
B26
B27
B28
B29
